Experimental data published in US4168263 (dated 1979).
The star is where a group is joined. Cbz = O=C(OCc1ccccc1)*; Boc = CC(C)(C)OC(=O)*

Assay: general procedure: solution-phase peptide synthesis; OSu active ester, Et3N
Conditions: coupling step

Substance	step yield
Boc-K(Cbz)K(Cbz)K(Cbz)G-OEt	72%
Boc-K(Cbz)K(Cbz)K(Cbz)K(Cbz)G-OEt	73%
